# Results from the supplement of paper PMC4604168 (melanoma cell lines).
# The list shows a part of the results. Repeats are few or missing, and single values can be far off.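 Cells were imaged in 1,536-well plates, and nuclei stained with an antibody against cleaved PARP were counted against all DNA-stained nuclei to give the apoptosis fraction. Screening doses were chosen to leave most cells alive, and resting and induced cleaved-PARP levels differ strongly between cell lines.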
# Legend:
# Assay in all cases: cleaved PARP positive nuclei fraction relative to DMSO control; melanoma cells; higher = more apoptosis
# Conditions in all cases: library dose: low library concentration; 72 h
# [1] = tested on: 501Mel
# [2] = tested on: A101D
# [3] = tested on: A2058
# [4] = tested on: A375
# [5] = tested on: C32
# [6] = tested on: CBRC013 (line from a melanoma biopsy)
# [7] = tested on: CBRC014 (line from a melanoma biopsy)
# [8] = tested on: CBRC016 (line from a melanoma biopsy)
# [9] = tested on: CBRC017 (line from a melanoma biopsy)
structure (smiles),measurement,setting,value
"NC(=O)Nc1cc(-c2cccc(F)c2)sc1C(=O)N[C@H]1CCCNC1 + O=C(Oc1ccc([N+](=O)[O-])cc1)N1CCC(C(O)(c2ccc3c(c2)OCO3)c2ccc3c(c2)OCO3)CC1 [JZL184] (first compound 0.02 µM, partner dose 1 µM)",cleaved PARP positive nuclei fraction,[1],105%
same,cleaved PARP positive nuclei fraction,[2],268%
same,cleaved PARP positive nuclei fraction,[3],49.1%
same,cleaved PARP positive nuclei fraction,[4],278%
same,cleaved PARP positive nuclei fraction,[5],78.9%
same,cleaved PARP positive nuclei fraction,[6],37.4%
same,cleaved PARP positive nuclei fraction,[7],85.1%
same,cleaved PARP positive nuclei fraction,[8],50.3%
same,cleaved PARP positive nuclei fraction,[9],154%
"COc1cc2c(Oc3ccc4[nH]c(C)cc4c3F)ncnc2cc1OCCCN1CCCC1 [cediranib] + Cc1cc(SCc2sc(-c3ccc(C(F)(F)F)c(F)c3)nc2C)ccc1OCC(=O)O [GW0742] (first compound 0.4 µM, partner dose 2 µM)",cleaved PARP positive nuclei fraction,[1],120%
same,cleaved PARP positive nuclei fraction,[2],45.7%
same,cleaved PARP positive nuclei fraction,[3],26.4%
same,cleaved PARP positive nuclei fraction,[4],119%
same,cleaved PARP positive nuclei fraction,[5],648%
same,cleaved PARP positive nuclei fraction,[6],89.3%
same,cleaved PARP positive nuclei fraction,[7],94.5%
same,cleaved PARP positive nuclei fraction,[8],67.8%
same,cleaved PARP positive nuclei fraction,[9],71.7%
"OCCn1cc(-c2cnc3nnn(Cc4ccc5ncccc5c4)c3n2)cn1 + Cc1cc(SCc2sc(-c3ccc(C(F)(F)F)c(F)c3)nc2C)ccc1OCC(=O)O [GW0742] (first compound 1 µM, partner dose 2 µM)",cleaved PARP positive nuclei fraction,[1],73.8%
same,cleaved PARP positive nuclei fraction,[2],103%
same,cleaved PARP positive nuclei fraction,[3],143%
same,cleaved PARP positive nuclei fraction,[4],230%
same,cleaved PARP positive nuclei fraction,[5],53.2%
same,cleaved PARP positive nuclei fraction,[6],87%
same,cleaved PARP positive nuclei fraction,[7],125%
same,cleaved PARP positive nuclei fraction,[8],41.9%
same,cleaved PARP positive nuclei fraction,[9],167%
"CC(C)(C)c1cnc(CSc2cnc(NC(=O)C3CCNCC3)s2)o1 + Cc1cc(SCc2sc(-c3ccc(C(F)(F)F)c(F)c3)nc2C)ccc1OCC(=O)O [GW0742] (first compound 0.01 µM, partner dose 2 µM)",cleaved PARP positive nuclei fraction,[1],162%
same,cleaved PARP positive nuclei fraction,[2],82.6%
same,cleaved PARP positive nuclei fraction,[3],134%
same,cleaved PARP positive nuclei fraction,[4],203%
same,cleaved PARP positive nuclei fraction,[5],71.3%
same,cleaved PARP positive nuclei fraction,[6],65.3%
same,cleaved PARP positive nuclei fraction,[7],106%
same,cleaved PARP positive nuclei fraction,[8],97.1%
same,cleaved PARP positive nuclei fraction,[9],107%
"Cc1ccc(NC(=O)c2cccc(N(C)C)c2)cc1NC(=O)c1ccc(O)cc1 + C/C(O)=C(\C#N)C(=O)Nc1cc(Br)ccc1Br [LFM-A13] (first compound 2 µM, partner dose 2 µM)",cleaved PARP positive nuclei fraction,[1],92.3%
same,cleaved PARP positive nuclei fraction,[2],207%
same,cleaved PARP positive nuclei fraction,[3],54.3%
same,cleaved PARP positive nuclei fraction,[4],65.6%
same,cleaved PARP positive nuclei fraction,[5],115%
same,cleaved PARP positive nuclei fraction,[6],182%
same,cleaved PARP positive nuclei fraction,[7],101%
same,cleaved PARP positive nuclei fraction,[8],83.1%
same,cleaved PARP positive nuclei fraction,[9],112%
"C[C@]1(c2nc3c(C(N)=O)cccc3[nH]2)CCCN1 [Veliparib] + Cc1cc(SCc2sc(-c3ccc(C(F)(F)F)c(F)c3)nc2C)ccc1OCC(=O)O [GW0742] (first compound 1.4 µM, partner dose 2 µM)",cleaved PARP positive nuclei fraction,[1],245%
same,cleaved PARP positive nuclei fraction,[2],55.9%
same,cleaved PARP positive nuclei fraction,[3],137%
same,cleaved PARP positive nuclei fraction,[4],89.8%
same,cleaved PARP positive nuclei fraction,[5],180%
same,cleaved PARP positive nuclei fraction,[6],43.8%
same,cleaved PARP positive nuclei fraction,[7],89.2%
same,cleaved PARP positive nuclei fraction,[8],77.9%
same,cleaved PARP positive nuclei fraction,[9],129%
"CN(NC(=O)CC(=O)NN(C)C(=S)c1ccccc1)C(=S)c1ccccc1 + Cc1cc(SCc2sc(-c3ccc(C(F)(F)F)c(F)c3)nc2C)ccc1OCC(=O)O [GW0742] (first compound 0.006 µM, partner dose 2 µM)",cleaved PARP positive nuclei fraction,[1],67.8%
same,cleaved PARP positive nuclei fraction,[2],138%
same,cleaved PARP positive nuclei fraction,[3],81.2%
same,cleaved PARP positive nuclei fraction,[4],105%
same,cleaved PARP positive nuclei fraction,[5],84.8%
same,cleaved PARP positive nuclei fraction,[6],50%
same,cleaved PARP positive nuclei fraction,[7],117%
same,cleaved PARP positive nuclei fraction,[8],100%
same,cleaved PARP positive nuclei fraction,[9],87%
"Oc1cc(-c2nc(-c3ccccc3)[nH]c2-c2ccncc2)ccc1Cl + C/C(O)=C(\C#N)C(=O)Nc1cc(Br)ccc1Br [LFM-A13] (first compound 0.2 µM, partner dose 2 µM)",cleaved PARP positive nuclei fraction,[1],83.8%
same,cleaved PARP positive nuclei fraction,[2],62.9%
same,cleaved PARP positive nuclei fraction,[3],131%
same,cleaved PARP positive nuclei fraction,[4],308%
same,cleaved PARP positive nuclei fraction,[5],92.4%
same,cleaved PARP positive nuclei fraction,[6],77.2%
same,cleaved PARP positive nuclei fraction,[7],88.1%
same,cleaved PARP positive nuclei fraction,[8],81.5%
same,cleaved PARP positive nuclei fraction,[9],81.9%
"N#Cc1c(O)c2c(-c3ccc(-c4ccccc4O)cc3)csc2[nH]c1=O + O=C(Oc1ccc([N+](=O)[O-])cc1)N1CCC(C(O)(c2ccc3c(c2)OCO3)c2ccc3c(c2)OCO3)CC1 [JZL184] (first compound 2 µM, partner dose 1 µM)",cleaved PARP positive nuclei fraction,[1],81.6%
same,cleaved PARP positive nuclei fraction,[2],53.5%
same,cleaved PARP positive nuclei fraction,[3],81.7%
same,cleaved PARP positive nuclei fraction,[4],85.4%
same,cleaved PARP positive nuclei fraction,[5],84.6%
same,cleaved PARP positive nuclei fraction,[6],65.7%
same,cleaved PARP positive nuclei fraction,[7],190%
same,cleaved PARP positive nuclei fraction,[8],40.9%
same,cleaved PARP positive nuclei fraction,[9],77.9%
"O=C(O)C(=O)Nc1sc2c(c1C(=O)O)CCNC2 + O=C(Oc1ccc([N+](=O)[O-])cc1)N1CCC(C(O)(c2ccc3c(c2)OCO3)c2ccc3c(c2)OCO3)CC1 [JZL184] (first compound 1.66667 µM, partner dose 1 µM)",cleaved PARP positive nuclei fraction,[1],76.3%
same,cleaved PARP positive nuclei fraction,[2],83.8%
same,cleaved PARP positive nuclei fraction,[3],74.3%
same,cleaved PARP positive nuclei fraction,[4],71.5%
same,cleaved PARP positive nuclei fraction,[5],80.4%
same,cleaved PARP positive nuclei fraction,[6],121%
same,cleaved PARP positive nuclei fraction,[7],71%
same,cleaved PARP positive nuclei fraction,[8],36.2%
same,cleaved PARP positive nuclei fraction,[9],81.5%
"Nc1cccc2c1CN(C1CCC(=O)NC1=O)C2=O (stereo not drawn) [lenalidomide] + O=C(Oc1ccc([N+](=O)[O-])cc1)N1CCC(C(O)(c2ccc3c(c2)OCO3)c2ccc3c(c2)OCO3)CC1 [JZL184] (first compound 1 µM, partner dose 1 µM)",cleaved PARP positive nuclei fraction,[1],23.6%
same,cleaved PARP positive nuclei fraction,[2],79.4%
same,cleaved PARP positive nuclei fraction,[3],44.7%
same,cleaved PARP positive nuclei fraction,[4],146%
same,cleaved PARP positive nuclei fraction,[5],30.1%
same,cleaved PARP positive nuclei fraction,[6],212%
same,cleaved PARP positive nuclei fraction,[7],87.9%
same,cleaved PARP positive nuclei fraction,[8],53.7%
same,cleaved PARP positive nuclei fraction,[9],57.2%
"Cn1cncc1[C@@](N)(c1ccc(Cl)cc1)c1ccc2c(c1)c(-c1cccc(Cl)c1)cc(=O)n2C [tipifarnib] + O=C(Oc1ccc([N+](=O)[O-])cc1)N1CCC(C(O)(c2ccc3c(c2)OCO3)c2ccc3c(c2)OCO3)CC1 [JZL184] (first compound 0.01 µM, partner dose 1 µM)",cleaved PARP positive nuclei fraction,[1],65.6%
same,cleaved PARP positive nuclei fraction,[2],118%
same,cleaved PARP positive nuclei fraction,[3],46.6%
same,cleaved PARP positive nuclei fraction,[4],28.7%
same,cleaved PARP positive nuclei fraction,[5],43.9%
same,cleaved PARP positive nuclei fraction,[6],310%
same,cleaved PARP positive nuclei fraction,[7],94%
same,cleaved PARP positive nuclei fraction,[8],67.6%
same,cleaved PARP positive nuclei fraction,[9],90%

# A portion taken from the entries so far, for reference:
structure (smiles),measurement,setting,value
"C[C@]1(c2nc3c(C(N)=O)cccc3[nH]2)CCCN1 [Veliparib] + Cc1cc(SCc2sc(-c3ccc(C(F)(F)F)c(F)c3)nc2C)ccc1OCC(=O)O [GW0742] (first compound 1.4 µM, partner dose 2 µM)",cleaved PARP positive nuclei fraction,[8],77.9%
same,cleaved PARP positive nuclei fraction,[9],129%
"CN(NC(=O)CC(=O)NN(C)C(=S)c1ccccc1)C(=S)c1ccccc1 + Cc1cc(SCc2sc(-c3ccc(C(F)(F)F)c(F)c3)nc2C)ccc1OCC(=O)O [GW0742] (first compound 0.006 µM, partner dose 2 µM)",cleaved PARP positive nuclei fraction,[1],67.8%
